{
  "source": "patent US20100152108A1",
  "about": "“METHODS AND COMBINATION THERAPIES FOR TREATING ALZHEIMER'S DISEASE” (priority 2006, published 2010)",
  "system": "scopolamine-treated rats",
  "test": "Two-trial object recognition paradigm in scopolamine-treated rats",
  "type": "in vivo, Sprague-Dawley rats",
  "conditions": "for Memory Performance (N-F, difference in time spent with the novel object and familiar object): scopolamine 0.3 mg/kg i.p., mean ± SEM",
  "data": [
    {"smiles": "COc1cc2c(cc1OC)C(=O)C(CC1CCN(Cc3ccccc3)CC1)C2", "note": "(centres unmarked) [Donepezil, 2-[(1-benzyl-4-piperidyl)methyl]-5,6-dimethoxy-2,3-dihydroinden-1-one]", "values": [
      {"measurement": "Memory Performance (N-F, difference in time spent with the novel object and familiar object)", "setting": "Donepezil 0.01 mg/kg i.p. + vehicle p.o.", "result": "1.88 ± 0.97", "unit": "s"},
      {"measurement": "Memory Performance (N-F, difference in time spent with the novel object and familiar object)", "setting": "Donepezil 0.03 mg/kg i.p. + vehicle p.o.", "result": "1.17 ± 2.22", "unit": "s"},
      {"measurement": "Memory Performance (N-F, difference in time spent with the novel object and familiar object)", "setting": "Donepezil 1 mg/kg i.p. + vehicle p.o.", "result": "8.8 ± 1.37", "unit": "s"},
      {"measurement": "effect at doses below the maximally effective dose, tested individually", "setting": "dimebon 2.5 mg/kg oral, donepezil 0.03 mg/kg intraperitoneal", "result": "only partially effective"},
      {"measurement": "maximally effective dose", "setting": "intraperitoneal", "result": 1, "unit": "mg/kg"}
    ]}
  ]
}
